Measured values: the supplement of paper PMC12067093, “Discovery and optimisation of a covalent ligand for TRIM25 and its application to targeted protein ubiquitination” (Chemical Science, 2025)
This is one part of the list.

Protein sequences, listed by entry. Tags and fused reporters are not part of them. Lines headed by an entry give the natural chain unless they say otherwise; changes in a name come on top.
UniProt Q9ULT0: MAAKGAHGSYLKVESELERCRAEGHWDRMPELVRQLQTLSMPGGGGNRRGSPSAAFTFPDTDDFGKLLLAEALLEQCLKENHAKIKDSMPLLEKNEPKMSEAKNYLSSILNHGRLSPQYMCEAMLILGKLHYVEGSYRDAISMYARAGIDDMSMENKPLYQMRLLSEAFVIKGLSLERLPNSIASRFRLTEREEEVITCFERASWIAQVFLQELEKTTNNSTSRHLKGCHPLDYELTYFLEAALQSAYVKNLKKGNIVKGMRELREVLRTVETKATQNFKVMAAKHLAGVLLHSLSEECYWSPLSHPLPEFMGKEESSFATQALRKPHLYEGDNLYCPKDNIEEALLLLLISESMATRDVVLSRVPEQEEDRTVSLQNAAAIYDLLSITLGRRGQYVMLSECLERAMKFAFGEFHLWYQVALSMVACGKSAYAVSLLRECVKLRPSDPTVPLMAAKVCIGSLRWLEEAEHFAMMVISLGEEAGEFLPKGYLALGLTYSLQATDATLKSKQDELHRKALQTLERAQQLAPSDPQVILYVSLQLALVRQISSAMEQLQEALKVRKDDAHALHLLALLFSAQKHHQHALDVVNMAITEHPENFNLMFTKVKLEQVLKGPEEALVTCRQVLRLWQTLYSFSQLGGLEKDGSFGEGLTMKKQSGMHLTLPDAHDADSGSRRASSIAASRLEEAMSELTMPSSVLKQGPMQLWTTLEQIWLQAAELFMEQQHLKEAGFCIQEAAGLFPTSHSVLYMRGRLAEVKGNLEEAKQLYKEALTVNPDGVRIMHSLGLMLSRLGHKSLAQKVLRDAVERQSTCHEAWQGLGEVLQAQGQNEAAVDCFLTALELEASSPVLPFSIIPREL
UniProt O94759, whole entry, looked up: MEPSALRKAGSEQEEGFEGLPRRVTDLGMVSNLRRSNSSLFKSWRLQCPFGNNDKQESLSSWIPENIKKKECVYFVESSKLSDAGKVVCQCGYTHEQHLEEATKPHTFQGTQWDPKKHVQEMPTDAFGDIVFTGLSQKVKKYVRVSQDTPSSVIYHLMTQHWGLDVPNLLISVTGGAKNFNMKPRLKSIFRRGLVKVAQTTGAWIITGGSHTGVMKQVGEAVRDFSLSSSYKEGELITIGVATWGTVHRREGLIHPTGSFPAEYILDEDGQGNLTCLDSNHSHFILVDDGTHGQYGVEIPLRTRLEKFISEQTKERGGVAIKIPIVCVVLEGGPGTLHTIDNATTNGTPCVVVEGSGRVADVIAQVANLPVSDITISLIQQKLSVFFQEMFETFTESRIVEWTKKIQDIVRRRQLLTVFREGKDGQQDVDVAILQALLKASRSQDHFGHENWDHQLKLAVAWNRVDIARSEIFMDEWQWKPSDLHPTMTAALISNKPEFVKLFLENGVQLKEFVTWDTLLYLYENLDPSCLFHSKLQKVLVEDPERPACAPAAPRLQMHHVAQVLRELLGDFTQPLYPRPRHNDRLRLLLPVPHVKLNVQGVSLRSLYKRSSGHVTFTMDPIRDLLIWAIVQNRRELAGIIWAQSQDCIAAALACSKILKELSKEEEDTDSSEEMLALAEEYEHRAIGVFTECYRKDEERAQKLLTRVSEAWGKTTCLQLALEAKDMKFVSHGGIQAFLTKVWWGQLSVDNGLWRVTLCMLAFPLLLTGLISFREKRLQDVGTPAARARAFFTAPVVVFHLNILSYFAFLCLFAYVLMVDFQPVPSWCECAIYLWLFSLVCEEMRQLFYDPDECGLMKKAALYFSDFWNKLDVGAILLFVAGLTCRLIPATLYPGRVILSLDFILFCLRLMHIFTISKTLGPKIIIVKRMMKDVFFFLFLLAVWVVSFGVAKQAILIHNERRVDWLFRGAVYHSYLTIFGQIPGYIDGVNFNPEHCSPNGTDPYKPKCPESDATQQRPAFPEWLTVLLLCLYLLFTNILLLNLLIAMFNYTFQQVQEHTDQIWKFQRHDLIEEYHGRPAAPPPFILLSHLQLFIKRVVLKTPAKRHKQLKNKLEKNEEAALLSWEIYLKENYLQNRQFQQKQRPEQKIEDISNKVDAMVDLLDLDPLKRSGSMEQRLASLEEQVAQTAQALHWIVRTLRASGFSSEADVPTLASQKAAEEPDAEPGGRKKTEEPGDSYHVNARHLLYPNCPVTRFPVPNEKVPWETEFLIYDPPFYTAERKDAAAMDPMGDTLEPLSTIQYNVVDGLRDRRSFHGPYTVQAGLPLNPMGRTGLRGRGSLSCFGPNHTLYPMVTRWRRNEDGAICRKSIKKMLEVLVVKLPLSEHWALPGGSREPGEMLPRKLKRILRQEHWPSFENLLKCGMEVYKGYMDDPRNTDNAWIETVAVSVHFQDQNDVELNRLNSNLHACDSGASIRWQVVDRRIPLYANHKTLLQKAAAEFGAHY
UniProt Q9UNY4: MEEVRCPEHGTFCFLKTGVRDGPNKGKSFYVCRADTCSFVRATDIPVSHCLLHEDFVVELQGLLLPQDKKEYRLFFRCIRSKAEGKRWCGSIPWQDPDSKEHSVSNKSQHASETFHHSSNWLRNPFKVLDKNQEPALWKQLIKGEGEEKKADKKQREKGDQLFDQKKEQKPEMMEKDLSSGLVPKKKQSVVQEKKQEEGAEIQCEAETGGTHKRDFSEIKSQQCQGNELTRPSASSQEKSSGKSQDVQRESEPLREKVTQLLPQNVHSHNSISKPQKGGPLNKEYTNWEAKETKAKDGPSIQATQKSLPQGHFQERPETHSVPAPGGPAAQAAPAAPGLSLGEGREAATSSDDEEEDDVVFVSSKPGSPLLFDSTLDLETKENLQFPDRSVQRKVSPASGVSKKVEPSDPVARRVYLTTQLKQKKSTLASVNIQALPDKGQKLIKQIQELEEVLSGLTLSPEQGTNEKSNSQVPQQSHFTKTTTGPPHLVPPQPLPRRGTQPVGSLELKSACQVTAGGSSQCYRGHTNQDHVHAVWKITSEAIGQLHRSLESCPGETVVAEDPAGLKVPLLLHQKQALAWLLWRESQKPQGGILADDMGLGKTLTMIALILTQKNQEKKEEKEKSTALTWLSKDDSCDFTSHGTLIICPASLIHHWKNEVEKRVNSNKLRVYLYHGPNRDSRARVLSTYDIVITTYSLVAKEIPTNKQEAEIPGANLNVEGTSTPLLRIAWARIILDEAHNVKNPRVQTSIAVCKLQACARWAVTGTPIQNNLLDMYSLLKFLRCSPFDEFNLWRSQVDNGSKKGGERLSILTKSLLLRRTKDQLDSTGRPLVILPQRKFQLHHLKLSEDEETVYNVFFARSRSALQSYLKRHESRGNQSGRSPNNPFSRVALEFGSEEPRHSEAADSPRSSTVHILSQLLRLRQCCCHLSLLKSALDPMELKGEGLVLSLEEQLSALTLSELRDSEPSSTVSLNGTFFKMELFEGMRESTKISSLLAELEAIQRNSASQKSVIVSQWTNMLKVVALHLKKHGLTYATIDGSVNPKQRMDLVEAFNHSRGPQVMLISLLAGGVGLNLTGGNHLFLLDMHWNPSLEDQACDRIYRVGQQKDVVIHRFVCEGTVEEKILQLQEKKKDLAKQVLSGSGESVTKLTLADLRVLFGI
UniProt Q96RT7, whole entry, looked up: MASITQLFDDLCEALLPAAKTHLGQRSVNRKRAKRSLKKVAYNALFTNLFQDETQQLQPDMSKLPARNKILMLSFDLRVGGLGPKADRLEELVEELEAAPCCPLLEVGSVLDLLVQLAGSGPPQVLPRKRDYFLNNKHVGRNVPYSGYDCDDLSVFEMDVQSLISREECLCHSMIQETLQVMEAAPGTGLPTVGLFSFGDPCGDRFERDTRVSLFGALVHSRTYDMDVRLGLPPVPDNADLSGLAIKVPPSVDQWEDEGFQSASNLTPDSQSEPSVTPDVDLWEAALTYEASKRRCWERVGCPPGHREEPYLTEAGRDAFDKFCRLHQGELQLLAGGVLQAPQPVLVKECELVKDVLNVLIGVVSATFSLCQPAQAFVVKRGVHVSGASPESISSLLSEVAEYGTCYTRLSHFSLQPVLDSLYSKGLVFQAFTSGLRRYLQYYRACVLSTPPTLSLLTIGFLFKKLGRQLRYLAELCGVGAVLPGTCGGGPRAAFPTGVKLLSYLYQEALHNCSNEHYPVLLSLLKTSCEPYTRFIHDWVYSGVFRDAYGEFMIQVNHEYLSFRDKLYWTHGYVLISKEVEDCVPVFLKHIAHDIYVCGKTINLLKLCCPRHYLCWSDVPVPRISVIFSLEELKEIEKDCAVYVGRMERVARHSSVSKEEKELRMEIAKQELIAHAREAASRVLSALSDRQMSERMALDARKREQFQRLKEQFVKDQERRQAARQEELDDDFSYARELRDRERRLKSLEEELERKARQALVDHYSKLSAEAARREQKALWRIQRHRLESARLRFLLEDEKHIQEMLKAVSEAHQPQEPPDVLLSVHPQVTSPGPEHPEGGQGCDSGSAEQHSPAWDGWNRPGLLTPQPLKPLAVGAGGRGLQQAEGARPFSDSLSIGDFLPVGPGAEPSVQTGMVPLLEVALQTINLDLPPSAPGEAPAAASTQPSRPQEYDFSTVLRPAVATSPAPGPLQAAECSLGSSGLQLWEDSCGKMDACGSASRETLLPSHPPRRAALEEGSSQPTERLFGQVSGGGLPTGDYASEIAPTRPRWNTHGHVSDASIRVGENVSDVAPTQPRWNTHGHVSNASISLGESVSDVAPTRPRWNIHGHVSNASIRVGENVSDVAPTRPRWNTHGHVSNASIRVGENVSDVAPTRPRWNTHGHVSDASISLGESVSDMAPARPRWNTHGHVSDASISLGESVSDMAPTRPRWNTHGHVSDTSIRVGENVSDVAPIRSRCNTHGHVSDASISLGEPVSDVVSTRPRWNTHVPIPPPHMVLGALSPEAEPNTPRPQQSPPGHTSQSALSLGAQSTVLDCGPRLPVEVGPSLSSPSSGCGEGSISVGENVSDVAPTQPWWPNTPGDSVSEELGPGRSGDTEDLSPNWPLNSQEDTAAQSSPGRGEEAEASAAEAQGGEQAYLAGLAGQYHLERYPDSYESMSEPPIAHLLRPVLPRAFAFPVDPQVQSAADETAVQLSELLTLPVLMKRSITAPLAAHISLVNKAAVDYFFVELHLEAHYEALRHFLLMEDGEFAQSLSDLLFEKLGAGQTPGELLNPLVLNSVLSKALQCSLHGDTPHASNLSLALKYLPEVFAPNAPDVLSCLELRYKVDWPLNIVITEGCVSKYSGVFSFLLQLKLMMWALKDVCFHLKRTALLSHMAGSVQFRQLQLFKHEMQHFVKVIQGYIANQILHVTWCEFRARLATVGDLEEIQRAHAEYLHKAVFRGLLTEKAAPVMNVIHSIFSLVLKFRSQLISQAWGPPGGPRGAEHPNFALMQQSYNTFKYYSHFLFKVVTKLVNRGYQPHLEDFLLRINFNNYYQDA
UniProt Q9H3M7: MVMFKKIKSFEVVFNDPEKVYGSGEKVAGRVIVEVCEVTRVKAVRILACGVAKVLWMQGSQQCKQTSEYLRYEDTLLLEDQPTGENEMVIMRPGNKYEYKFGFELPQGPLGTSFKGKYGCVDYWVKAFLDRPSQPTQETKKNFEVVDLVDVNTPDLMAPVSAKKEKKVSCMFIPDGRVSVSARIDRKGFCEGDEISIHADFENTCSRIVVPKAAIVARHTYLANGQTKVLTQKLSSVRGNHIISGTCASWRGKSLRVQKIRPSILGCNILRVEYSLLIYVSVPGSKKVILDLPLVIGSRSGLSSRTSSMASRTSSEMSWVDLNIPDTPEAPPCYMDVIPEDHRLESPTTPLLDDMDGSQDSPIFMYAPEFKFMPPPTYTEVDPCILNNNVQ
UniProt P33981: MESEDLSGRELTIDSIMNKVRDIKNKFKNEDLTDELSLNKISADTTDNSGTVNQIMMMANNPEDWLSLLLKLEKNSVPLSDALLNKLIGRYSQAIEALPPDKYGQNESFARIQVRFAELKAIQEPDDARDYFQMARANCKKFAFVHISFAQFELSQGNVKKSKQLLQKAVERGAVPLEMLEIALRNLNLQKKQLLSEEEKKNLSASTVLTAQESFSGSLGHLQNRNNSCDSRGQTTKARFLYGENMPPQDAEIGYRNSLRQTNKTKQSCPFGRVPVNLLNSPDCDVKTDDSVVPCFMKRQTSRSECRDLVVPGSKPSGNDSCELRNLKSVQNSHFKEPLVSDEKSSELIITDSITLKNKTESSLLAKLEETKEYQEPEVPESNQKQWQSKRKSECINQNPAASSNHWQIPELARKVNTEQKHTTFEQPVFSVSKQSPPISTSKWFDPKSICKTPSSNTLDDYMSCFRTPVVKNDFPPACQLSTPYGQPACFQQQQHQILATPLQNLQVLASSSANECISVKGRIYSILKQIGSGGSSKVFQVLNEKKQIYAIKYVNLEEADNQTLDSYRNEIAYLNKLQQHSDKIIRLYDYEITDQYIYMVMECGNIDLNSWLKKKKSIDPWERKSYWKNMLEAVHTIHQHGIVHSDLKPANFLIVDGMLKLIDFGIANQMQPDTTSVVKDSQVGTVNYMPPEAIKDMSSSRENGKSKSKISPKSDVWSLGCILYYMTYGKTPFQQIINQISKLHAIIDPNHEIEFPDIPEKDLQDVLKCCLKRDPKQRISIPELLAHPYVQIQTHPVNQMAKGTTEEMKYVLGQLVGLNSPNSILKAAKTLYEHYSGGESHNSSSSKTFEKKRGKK

Compound: Cc1cc(ccc1-c1ccccc1)C(=O)N1CCCN(CC1)C(=O)CCl [compound 10]
Experiment: probe-labelled cysteine peptide fold change vs DMSO (competition) (log2 fold change); higher = less target engagement (more negative = stronger competition)
Conditions: THP-1, incubation time: 4 h
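Note: competitive profiling in live THP-1 cells: cysteine peptides tagged with an iodoacetamide desthiobiotin (IA-DTB) probe, intensity after compound treatment relative to DMSO-treated cells.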

Target	probe-labelled cysteine peptide fold change (10 µM)	probe-labelled cysteine peptide fold change (50 µM)
TRRAP_Q9Y4A5_420_NIDDESLPSSIQTMSCK (UniProt Q9Y4A5)	0.467	0.344
TSTA3_Q13630_116_VVSCLSTCIFPDK (UniProt Q13630)	-0.0711	-1.67
TUBB6_Q9BUF5_127_KECEHCDCLQGFQLTHSLGGGTGSGMGTLLISK (UniProt Q9BUF5)	-0.0582	-0.441
TRRAP_Q9Y4A5_620_VANCQTVR (UniProt Q9Y4A5)	-0.0124	-0.406
TTLL12_Q14166_361_LSQERPGVLLNQFPCENLLTVK (UniProt Q14166)	0.0492	-0.0145
TTC7A_Q9ULT0_121_LSPQYMCEAMLILGK (UniProt Q9ULT0)	0.271	0.227
TTC4_O95801_63_ENPDLACLQSIIFDEERSPEEQAK (UniProt O95801)	-0.307	-0.087
TRPM2_O94759_1341_GSLSCFGPNHTLYPMVTR (UniProt O94759)	-0.0254	0.0306
TTF2_Q9UNY4_50_ATDIPVSHCLLHEDFVVELQGLLLPQDK (UniProt Q9UNY4)	0.179	0.417
TROVE2_P10155_99_QEPMLFALAICSQCSDISTK (UniProt P10155)	0.128	0.0812
TUBGCP6_Q96RT7_302_VGCPPGHREEPYLTEAGR (UniProt Q96RT7)	-0.208	-0.275
TXNIP_Q9H3M7_63_VLWMQGSQQCK (UniProt Q9H3M7)	-0.134	-0.964
TTC17_Q96AE7_725_CPECENSLK (UniProt Q96AE7)	0.113	0.453
TTC37_Q6PGP7_305_ESPVCTSGWYHLAEAQVK (UniProt Q6PGP7)	0.0355	-0.0923
TUBA4A_P68366_4_MRECISVHVGQAGVQMGNACWELYCLEHGIQPDGQMPSDK (UniProt P68366)	-0.0787	-0.408
TTI1_O43156_994_LQLAVLQGLGPLCER (UniProt O43156)	0.0524	0.172
TSFM_P43897_149_FQLLVQQVALGTMMHCQTLK (UniProt P43897)	-0.0922	-0.0243
TTK_P33981_322_PSGNDSCELR (UniProt P33981)	-0.155	-0.611
TRPM2_O94759_1250_HLLYPNCPVTR (UniProt O94759)	-0.0942	0.13
TTF2_Q9UNY4_204_KQEEGAEIQCEAETGGTHKR (UniProt Q9UNY4)	-0.2	-0.149

Single records (already shown).
TTK_P33981_322_PSGNDSCELR (UniProt P33981) in the list: probe-labelled cysteine peptide fold change (10 µM): -0.155; probe-labelled cysteine peptide fold change (50 µM): -0.611
TTC7A_Q9ULT0_121_LSPQYMCEAMLILGK (UniProt Q9ULT0) in the list: probe-labelled cysteine peptide fold change (10 µM): 0.271; probe-labelled cysteine peptide fold change (50 µM): 0.227
TUBGCP6_Q96RT7_302_VGCPPGHREEPYLTEAGR (UniProt Q96RT7) in the list: probe-labelled cysteine peptide fold change (10 µM): -0.208; probe-labelled cysteine peptide fold change (50 µM): -0.275

(next part)

Target	probe-labelled cysteine peptide fold change (10 µM)	probe-labelled cysteine peptide fold change (50 µM)
TRRAP_Q9Y4A5_3849_VNTLVAAANSLDNLCR (UniProt Q9Y4A5)	-0.068	0.0346
TUFM_P49411_290_GDECELLGHSK (UniProt P49411)	-0.02	-0.0434
TST_Q16762_248_KVDLSQPLIATCR (UniProt Q16762)	-0.0736	-0.892
TTF2_Q9UNY4_50_ATDIPVSHCLLHEDFVVELQGLLLPQDKK (UniProt Q9UNY4)	0.136	-0.0113
TTC27_Q6P3X3_549_EFQECVECFER (UniProt Q6P3X3)	0.12	-0.273
TTC7A_Q9ULT0_199_LTEREEEVITCFER (UniProt Q9ULT0)	0.0306	-0.0334
TRMT2A_Q8IZ69_538_RLLYVSCNPR (UniProt Q8IZ69)	0.11	0.331
TRMT61A_Q96FX7_209_FCSFSPCIEQVQR (UniProt Q96FX7)	-0.732	-0.955
TTC26_A0AVF1_227_ACNHFR	0.0383	-0.0175
TSC1_Q92574_259_RLETHDVVIECAK (UniProt Q92574)	0.224	0.167
TTLL12_Q14166_418_WGEDNHWICK (UniProt Q14166)	0.0687	0.0032
TUT7_Q5VYS8_775_RGEHVVCGSTR (UniProt Q5VYS8)	-0.538	-0.118
TTC14_Q96N46_577_DRCPLSSSSLEIPDDFGGR (UniProt Q96N46)	0.256	-0.193
TUFM_P49411_290_KGDECELLGHSK (UniProt P49411)	-0.121	-0.0683
TTF1_Q15361_445_KTQACLASK (UniProt Q15361)	-0.039	-0.411
TXNIP_Q9H3M7_36_VIVEVCEVTR (UniProt Q9H3M7)	0.0116	-0.861
TSC2_P49815_1587_DCQPDK (UniProt P49815)	0.0812	-0.342
TSR1_Q2NL82_753_CSFDGK (UniProt Q2NL82)	-0.291	-0.317
TXNDC5_Q8NBS9_350+353_FYAPWCGHCK (UniProt Q8NBS9)	-0.375	-1.05
